What all share (assay): log2 fold change, soluble protein after heating vs DMSO (PISA); higher = thermal stabilisation; K562 lysate, 10 uM; active = over 0.2 and 3.5 SD of the protein, either way, in both replicates (recomputed)
Compound in experiment [1]: C1=CC=C(C=C1)[C@H](COC2=CC3=C(C=C2)NC(=O)N3)NC(=O)C4=CC=CN(C4=O)CC5=CC(=C(C=C5)F)F
The method, boiled down: (§1)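 K562 pellets were dounce-homogenised in PBS pH 7.4 with 1 mM MgCl2, and the crude extract at 1 mg/mL protein was treated with 10 μM compound for 30 min. Aliquots were heated for 3 min across 48°C-58°C, pooled, and brought to 0.5% NP-40 at 4°C; soluble protein was the supernatant after 21,000xg for 90 min. Soluble protein was quantified by TMTpro 16plex LC-MS/MS with channel sums equalised, and reported as log2 fold change in thermal stability against DMSO controls, with values from duplicates.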

Protein sequences, listed by entry. Tags and fused reporters are not part of them. Lines headed by an entry give the natural chain unless they say otherwise; changes in a name come on top.
UniProt Q9BYB4: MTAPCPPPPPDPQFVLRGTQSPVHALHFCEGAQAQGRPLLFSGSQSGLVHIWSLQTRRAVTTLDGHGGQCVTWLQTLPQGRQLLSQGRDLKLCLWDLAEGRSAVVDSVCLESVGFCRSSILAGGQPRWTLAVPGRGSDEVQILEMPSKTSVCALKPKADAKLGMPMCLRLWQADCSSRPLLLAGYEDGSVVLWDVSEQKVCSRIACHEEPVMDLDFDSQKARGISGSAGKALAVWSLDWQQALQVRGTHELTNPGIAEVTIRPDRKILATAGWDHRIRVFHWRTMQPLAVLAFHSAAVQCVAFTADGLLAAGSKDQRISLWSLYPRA
UniProt Q08379: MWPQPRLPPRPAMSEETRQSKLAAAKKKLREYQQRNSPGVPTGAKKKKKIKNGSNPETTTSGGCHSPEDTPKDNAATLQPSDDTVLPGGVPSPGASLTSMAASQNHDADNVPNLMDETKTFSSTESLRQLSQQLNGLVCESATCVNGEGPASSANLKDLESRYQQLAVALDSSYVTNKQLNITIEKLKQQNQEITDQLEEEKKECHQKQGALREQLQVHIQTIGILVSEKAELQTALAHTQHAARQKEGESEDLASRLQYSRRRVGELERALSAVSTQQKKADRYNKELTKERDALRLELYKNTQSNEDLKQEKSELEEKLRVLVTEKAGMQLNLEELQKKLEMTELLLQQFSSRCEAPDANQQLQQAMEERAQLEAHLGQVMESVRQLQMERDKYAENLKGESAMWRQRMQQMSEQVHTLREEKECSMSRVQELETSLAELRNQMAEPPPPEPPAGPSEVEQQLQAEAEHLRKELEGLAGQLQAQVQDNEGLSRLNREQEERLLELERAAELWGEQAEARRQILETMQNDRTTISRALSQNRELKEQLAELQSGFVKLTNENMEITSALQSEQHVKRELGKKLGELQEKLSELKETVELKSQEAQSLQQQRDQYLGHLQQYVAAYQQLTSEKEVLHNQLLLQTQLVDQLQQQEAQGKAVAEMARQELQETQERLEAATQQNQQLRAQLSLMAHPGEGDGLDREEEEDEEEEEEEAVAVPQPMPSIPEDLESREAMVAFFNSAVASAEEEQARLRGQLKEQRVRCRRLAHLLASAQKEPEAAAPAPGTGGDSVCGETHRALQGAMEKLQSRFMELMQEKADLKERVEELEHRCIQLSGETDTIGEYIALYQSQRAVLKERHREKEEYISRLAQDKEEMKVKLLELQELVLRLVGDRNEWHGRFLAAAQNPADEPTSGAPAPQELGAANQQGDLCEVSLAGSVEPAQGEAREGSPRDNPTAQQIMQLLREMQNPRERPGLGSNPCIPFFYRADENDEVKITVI
UniProt Q99795: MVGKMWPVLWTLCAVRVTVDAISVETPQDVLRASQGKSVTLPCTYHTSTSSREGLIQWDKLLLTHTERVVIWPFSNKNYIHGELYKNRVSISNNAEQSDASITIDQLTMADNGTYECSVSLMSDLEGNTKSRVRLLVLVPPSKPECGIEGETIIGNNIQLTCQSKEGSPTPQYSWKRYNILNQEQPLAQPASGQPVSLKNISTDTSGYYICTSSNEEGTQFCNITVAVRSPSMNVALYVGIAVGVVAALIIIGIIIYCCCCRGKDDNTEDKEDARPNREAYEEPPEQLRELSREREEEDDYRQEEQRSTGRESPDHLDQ
UniProt Q5VW38: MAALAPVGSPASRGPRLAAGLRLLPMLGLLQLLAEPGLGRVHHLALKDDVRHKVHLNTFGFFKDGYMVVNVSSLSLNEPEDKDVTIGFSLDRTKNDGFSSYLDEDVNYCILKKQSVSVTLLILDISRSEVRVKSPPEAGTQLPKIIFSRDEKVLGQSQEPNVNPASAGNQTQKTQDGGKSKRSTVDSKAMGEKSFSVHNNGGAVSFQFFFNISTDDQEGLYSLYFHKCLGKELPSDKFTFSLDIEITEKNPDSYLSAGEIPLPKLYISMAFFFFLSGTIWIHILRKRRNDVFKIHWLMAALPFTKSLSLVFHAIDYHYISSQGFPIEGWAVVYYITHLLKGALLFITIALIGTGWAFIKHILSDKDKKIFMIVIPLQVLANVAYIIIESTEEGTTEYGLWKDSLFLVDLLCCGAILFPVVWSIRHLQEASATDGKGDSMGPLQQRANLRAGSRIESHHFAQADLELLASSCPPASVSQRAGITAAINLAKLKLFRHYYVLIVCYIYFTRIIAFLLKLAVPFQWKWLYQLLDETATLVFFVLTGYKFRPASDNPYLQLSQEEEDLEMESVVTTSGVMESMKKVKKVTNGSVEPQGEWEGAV
UniProt Q53EU6: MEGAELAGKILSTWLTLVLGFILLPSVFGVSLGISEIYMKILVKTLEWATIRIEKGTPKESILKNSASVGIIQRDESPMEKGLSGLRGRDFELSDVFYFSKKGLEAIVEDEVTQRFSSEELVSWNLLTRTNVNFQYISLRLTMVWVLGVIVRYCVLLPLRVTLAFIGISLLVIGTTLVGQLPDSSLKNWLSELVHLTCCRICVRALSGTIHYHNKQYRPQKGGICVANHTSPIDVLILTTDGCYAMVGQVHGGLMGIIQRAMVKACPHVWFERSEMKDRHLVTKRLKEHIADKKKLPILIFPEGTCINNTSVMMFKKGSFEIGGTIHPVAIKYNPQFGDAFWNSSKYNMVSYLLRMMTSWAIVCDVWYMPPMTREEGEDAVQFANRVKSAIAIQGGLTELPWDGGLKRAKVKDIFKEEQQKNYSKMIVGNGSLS
UniProt P21695: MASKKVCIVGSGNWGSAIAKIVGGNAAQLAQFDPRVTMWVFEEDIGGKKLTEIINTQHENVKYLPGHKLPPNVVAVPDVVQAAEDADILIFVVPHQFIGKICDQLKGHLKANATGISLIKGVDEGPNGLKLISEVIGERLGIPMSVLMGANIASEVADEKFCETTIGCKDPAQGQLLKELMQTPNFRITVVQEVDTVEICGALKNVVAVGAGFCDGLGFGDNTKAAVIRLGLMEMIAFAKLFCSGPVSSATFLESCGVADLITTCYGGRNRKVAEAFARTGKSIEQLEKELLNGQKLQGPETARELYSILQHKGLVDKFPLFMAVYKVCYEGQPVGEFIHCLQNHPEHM
UniProt Q8N335: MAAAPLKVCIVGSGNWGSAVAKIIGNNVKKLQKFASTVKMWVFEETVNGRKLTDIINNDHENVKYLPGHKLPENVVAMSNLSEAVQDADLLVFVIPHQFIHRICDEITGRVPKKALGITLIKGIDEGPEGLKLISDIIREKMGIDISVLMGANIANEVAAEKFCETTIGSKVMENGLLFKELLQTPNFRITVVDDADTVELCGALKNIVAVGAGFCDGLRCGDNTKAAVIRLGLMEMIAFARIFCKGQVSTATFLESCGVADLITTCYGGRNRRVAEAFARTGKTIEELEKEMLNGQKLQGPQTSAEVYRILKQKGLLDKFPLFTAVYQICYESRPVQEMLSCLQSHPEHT
UniProt Q14344, whole entry, looked up: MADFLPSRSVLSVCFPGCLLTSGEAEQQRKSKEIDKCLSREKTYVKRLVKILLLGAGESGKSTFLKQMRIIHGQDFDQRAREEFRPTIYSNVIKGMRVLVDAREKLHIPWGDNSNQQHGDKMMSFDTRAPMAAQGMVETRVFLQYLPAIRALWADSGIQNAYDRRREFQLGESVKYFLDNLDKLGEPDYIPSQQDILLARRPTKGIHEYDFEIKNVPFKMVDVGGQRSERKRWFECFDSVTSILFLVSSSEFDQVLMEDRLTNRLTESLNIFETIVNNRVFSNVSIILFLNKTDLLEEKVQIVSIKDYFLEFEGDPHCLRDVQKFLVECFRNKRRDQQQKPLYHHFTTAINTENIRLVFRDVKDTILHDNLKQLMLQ
UniProt Q13227: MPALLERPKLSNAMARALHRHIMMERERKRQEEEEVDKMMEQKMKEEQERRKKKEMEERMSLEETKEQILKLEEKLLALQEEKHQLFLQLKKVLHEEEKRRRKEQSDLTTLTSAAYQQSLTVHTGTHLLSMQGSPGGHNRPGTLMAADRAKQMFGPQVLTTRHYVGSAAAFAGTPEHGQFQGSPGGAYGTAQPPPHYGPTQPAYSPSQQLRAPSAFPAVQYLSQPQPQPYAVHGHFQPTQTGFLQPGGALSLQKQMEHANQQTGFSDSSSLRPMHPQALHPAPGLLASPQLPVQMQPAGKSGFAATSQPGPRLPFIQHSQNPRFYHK
UniProt Q9UJJ9: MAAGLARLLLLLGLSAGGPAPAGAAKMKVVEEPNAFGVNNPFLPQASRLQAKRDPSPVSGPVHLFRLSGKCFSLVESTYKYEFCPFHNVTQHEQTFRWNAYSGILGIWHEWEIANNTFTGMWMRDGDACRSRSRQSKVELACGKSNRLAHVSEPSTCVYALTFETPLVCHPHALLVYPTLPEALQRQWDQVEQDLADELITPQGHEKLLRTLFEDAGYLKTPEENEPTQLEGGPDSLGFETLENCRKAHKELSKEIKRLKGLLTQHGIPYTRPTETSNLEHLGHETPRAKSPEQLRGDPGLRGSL
UniProt O95749: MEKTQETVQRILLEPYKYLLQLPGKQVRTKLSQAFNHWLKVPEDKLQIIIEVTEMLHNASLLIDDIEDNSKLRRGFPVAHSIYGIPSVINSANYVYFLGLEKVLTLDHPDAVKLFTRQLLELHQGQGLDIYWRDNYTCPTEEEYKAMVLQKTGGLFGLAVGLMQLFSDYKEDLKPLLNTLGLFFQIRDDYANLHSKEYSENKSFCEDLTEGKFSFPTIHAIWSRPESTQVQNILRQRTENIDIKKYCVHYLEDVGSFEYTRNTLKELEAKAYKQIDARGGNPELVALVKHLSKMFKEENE
UniProt Q92917: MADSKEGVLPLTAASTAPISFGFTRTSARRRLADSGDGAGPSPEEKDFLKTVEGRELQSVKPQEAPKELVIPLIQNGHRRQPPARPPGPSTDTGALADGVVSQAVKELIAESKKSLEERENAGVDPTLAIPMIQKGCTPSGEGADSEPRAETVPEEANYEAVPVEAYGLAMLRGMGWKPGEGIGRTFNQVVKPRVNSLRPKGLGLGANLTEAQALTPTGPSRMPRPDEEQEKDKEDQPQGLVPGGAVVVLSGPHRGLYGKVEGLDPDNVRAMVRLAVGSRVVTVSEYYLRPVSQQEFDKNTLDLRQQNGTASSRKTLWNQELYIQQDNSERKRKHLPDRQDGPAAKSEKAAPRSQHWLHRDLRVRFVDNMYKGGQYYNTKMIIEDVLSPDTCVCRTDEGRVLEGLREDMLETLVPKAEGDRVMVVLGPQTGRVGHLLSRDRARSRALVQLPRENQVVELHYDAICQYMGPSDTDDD
UniProt Q9P2T1: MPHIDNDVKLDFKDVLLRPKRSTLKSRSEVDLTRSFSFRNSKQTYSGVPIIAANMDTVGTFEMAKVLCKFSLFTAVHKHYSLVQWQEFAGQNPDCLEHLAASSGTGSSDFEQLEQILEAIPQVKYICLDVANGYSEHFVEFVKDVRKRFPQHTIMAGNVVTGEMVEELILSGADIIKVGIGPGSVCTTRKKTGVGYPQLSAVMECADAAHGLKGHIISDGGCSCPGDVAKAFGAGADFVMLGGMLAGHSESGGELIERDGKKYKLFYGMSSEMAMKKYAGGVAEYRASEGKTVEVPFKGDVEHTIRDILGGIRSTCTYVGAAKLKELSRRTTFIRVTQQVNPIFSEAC
UniProt P36959: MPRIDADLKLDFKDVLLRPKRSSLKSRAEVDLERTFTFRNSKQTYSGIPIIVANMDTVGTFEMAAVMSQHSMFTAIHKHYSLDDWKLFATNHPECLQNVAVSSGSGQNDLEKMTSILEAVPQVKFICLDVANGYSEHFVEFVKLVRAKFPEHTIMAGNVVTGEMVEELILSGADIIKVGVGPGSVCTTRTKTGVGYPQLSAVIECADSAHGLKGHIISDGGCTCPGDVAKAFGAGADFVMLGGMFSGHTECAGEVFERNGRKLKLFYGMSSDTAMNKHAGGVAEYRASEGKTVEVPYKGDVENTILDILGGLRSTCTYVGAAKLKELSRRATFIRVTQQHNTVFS
UniProt Q9NQX3: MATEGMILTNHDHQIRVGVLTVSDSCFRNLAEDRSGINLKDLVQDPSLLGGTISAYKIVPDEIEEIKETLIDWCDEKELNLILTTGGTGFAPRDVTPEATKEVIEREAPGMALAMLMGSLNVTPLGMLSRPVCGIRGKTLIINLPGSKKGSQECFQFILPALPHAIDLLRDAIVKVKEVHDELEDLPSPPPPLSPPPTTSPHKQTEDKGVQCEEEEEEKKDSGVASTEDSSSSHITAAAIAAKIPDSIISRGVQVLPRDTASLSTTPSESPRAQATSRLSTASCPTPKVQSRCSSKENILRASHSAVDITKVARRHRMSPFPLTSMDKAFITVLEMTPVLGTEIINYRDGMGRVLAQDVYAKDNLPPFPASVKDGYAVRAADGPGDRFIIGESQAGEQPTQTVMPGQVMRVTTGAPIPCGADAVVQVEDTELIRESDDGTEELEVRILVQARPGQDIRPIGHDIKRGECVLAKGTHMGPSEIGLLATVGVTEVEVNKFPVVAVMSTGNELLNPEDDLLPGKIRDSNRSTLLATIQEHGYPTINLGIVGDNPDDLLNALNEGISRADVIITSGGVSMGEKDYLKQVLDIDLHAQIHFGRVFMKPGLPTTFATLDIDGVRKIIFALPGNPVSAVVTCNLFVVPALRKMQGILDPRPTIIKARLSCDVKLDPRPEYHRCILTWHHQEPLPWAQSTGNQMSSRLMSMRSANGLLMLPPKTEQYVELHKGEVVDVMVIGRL

Compound in experiment [2]: CC1=C(SC2=C1C(=N[C@H](C3=NN=C(N32)C)CC(=O)N)C4=CC=C(C=C4)Cl)C
The method in brief: as §1

Compound in experiment [3]: CC1=C2C(=CC=C1)N=C(N(C2=O)C3=CC=CC=C3C)CN4C=NC5=C(N=CN=C54)N
The method in brief:
as §1

Compound in experiment [4]: Cc1sc2c(c1C)C(c1ccc(Cl)cc1)=N[C@@H](CC(=O)OC(C)(C)C)c1nnc(C)n1-2
The method, boiled down: as §1

Compound in experiment [5]: c1ccc([C@@H]2C[C@H]2NC2CCNCC2)cc1
The method, boiled down:
as §1

The other results are listed elsewhere or left out.

The text below walks through data of the supplement of paper PMC10849652.

Regarding GPBP1 isoform 2 (UniProt Q86WP2), the log2 fold change in experiment [1] was inactive: 0.124; in experiment [2], inactive: -0.089; in experiment [3], inactive: -0.07; in experiment [4], inactive: 0.046; in experiment [5], inactive: -0.029.

As to GNB1L (UniProt Q9BYB4), the log2 fold change is inactive: 0.019 in experiment [1]; inactive: 0.002 in experiment [2]; inactive: -0.023 in experiment [3]; inactive: 0.004 in experiment [4]; inactive: -0.037 in experiment [5].

In the case of GOLGA2 (UniProt Q08379), the log2 fold change in experiment [1] was inactive: -0.012; in experiment [2], inactive: -0.002; in experiment [3], inactive: 0; in experiment [4], inactive: 0.03; in experiment [5], inactive: 0.006.

In the case of GINS2 (UniProt Q9Y248), the log2 fold change in experiment [1] is inactive: -0.016; in experiment [2], inactive: -0.006; in experiment [3] it was inactive: -0.025; in experiment [4], inactive: -0.004; in experiment [5], inactive: -0.012.

Take GPA33 (UniProt Q99795): the log2 fold change in experiment [1] is inactive: 0.007; in experiment [2], inactive: 0.024; in experiment [3], inactive: 0.006; in experiment [4], inactive: -0.248; in experiment [5], active: -0.514.

For the target GPR107 isoform 2 (UniProt Q5VW38), the log2 fold change in experiment [1] was inactive: -0.001; in experiment [2] it was inactive: 0.001; in experiment [3], inactive: -0.026; in experiment [4], inactive: -0.057; in experiment [5] it was inactive: -0.058.

GPAT3 (UniProt Q53EU6): the log2 fold change in experiment [1] is inactive: 0.027; in experiment [2], inactive: 0.05; in experiment [3], inactive: 0.037; in experiment [4], inactive: -0.013; in experiment [5] it was inactive: -0.034.

GPD1 (UniProt P21695): the log2 fold change was inactive: 0.019 in experiment [1]; inactive: 0.084 in experiment [2]; inactive: 0.059 in experiment [3]; inactive: -0.35 in experiment [4]; inactive: 0.064 in experiment [5].

With GMPS (UniProt P49915), the log2 fold change in experiment [1] is inactive: -0.014; in experiment [2] it was inactive: -0.001; in experiment [3], inactive: 0.02; in experiment [4], inactive: 0.019; in experiment [5], inactive: 0.088.

Take GPD1L (UniProt Q8N335): the log2 fold change in experiment [1] is inactive: -0.012; in experiment [2] it was inactive: -0.018; in experiment [3], inactive: 0.025; in experiment [4] it was inactive: 0.063; in experiment [5], inactive: 0.04.

On to GNA13 (UniProt Q14344), for which the log2 fold change was inactive: -0.018 in experiment [1]; inactive: 0.005 in experiment [2]; inactive: -0.055 in experiment [3]; inactive: -0.014 in experiment [4]; inactive: 0 in experiment [5].

GLB1 (UniProt P16278): the log2 fold change in experiment [1] is inactive: 0.02; in experiment [2], inactive: 0.033; in experiment [3], inactive: 0.046; in experiment [4], inactive: 0.016; in experiment [5], inactive: -0.019.

As to GINS1 (UniProt Q14691), the log2 fold change in experiment [1] is inactive: 0.035; in experiment [2], inactive: -0.008; in experiment [3], inactive: 0.034; in experiment [4], inactive: 0.027; in experiment [5] it was inactive: 0.034.

As to GPS2 (UniProt Q13227), the log2 fold change in experiment [1] was inactive: 0.118; in experiment [2], inactive: 0; in experiment [3], inactive: -0.039; in experiment [4] it was inactive: 0.068; in experiment [5], inactive: 0.021.

Take GPAA1 (UniProt O43292): the log2 fold change in experiment [1] is inactive: -0.055; in experiment [2] it was inactive: 0.022; in experiment [3], inactive: 0.004; in experiment [4], inactive: -0.045; in experiment [5], inactive: -0.004.

Consider GNPTG (UniProt Q9UJJ9), for which the log2 fold change is inactive: 0.088 in experiment [1]; inactive: -0.126 in experiment [2]; inactive: -0.098 in experiment [3]; inactive: 0.017 in experiment [4]; inactive: -0.029 in experiment [5].

For GGPS1 (UniProt O95749), the log2 fold change in experiment [1] was inactive: 0.031; in experiment [2], inactive: 0.025; in experiment [3] it was inactive: 0.006; in experiment [4], inactive: 0.023; in experiment [5], inactive: 0.004.

Regarding GPKOW (UniProt Q92917), the log2 fold change in experiment [1] is inactive: 0.051; in experiment [2], inactive: -0.01; in experiment [3], inactive: 0.011; in experiment [4] it was inactive: 0.029; in experiment [5], inactive: 0.07.

Consider GMPR2 isoform 2 (UniProt Q9P2T1), for which the log2 fold change is inactive: -0.022 in experiment [1]; inactive: -0.013 in experiment [2]; inactive: 0.007 in experiment [3]; inactive: 0.019 in experiment [4]; inactive: -0.022 in experiment [5].

Regarding GLUD2 (UniProt P49448), the log2 fold change in experiment [1] is inactive: -0.001; in experiment [2], inactive: 0.031; in experiment [3], inactive: 0.265; in experiment [4] it was inactive: 0.019; in experiment [5], inactive: 0.022.

Regarding GINS3 (UniProt Q9BRX5), the log2 fold change is inactive: -0.033 in experiment [1]; inactive: -0.051 in experiment [2]; inactive: 0.035 in experiment [3]; inactive: 0.029 in experiment [4]; inactive: 0.001 in experiment [5].

As to GOLT1B (UniProt Q9Y3E0), the log2 fold change in experiment [1] was inactive: -0.004; in experiment [2] it was inactive: 0.014; in experiment [3], inactive: 0.004; in experiment [4] it was inactive: -0.039; in experiment [5], inactive: 0.066.

With GMPR (UniProt P36959), the log2 fold change in experiment [1] is inactive: -0.02; in experiment [2], inactive: 0.015; in experiment [3] it was inactive: 0.006; in experiment [4], inactive: -0.046; in experiment [5], inactive: 0.023.

Take GPHN isoform 2 (UniProt Q9NQX3): the log2 fold change in experiment [1] is inactive: 0.018; in experiment [2], inactive: 0.005; in experiment [3], inactive: 0.011; in experiment [4] it was inactive: -0.023; in experiment [5], inactive: -0.037.
